The supplement of paper PMC5407854, “Inhibitor of ppGalNAc-T3-mediated O-glycosylation blocks cancer cell invasiveness and lowers FGF23 levels” (eLife, 2017)
Whole data set: some 1,700 compounds, median “T3 sensor activation Q score (MG/GFP ratio z-score vs DMSO controls)” near 0.25, cut for the highest 2% near 1.9. This is one part of the list.

Test system: ppGalNAc-T3 sensor
Assay: T3 sensor activation Q score (MG/GFP ratio z-score vs DMSO controls) (SD units); higher = more sensor activation (inhibition of ppGalNAc-T3 glycosylation)
Settings: HEK293 sensor cells; 10 µM; 6 h
Procedure: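 Cells were treated with compound at 10 uM for 6 h, then MG/GFP ratio was read by flow cytometry (10,000 cells per well, duplicate wells). Q = (R - R_neg)/SD_neg relative to DMSO vehicle controls; the signal rises when the glycosyltransferase is inhibited.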

SMILES | T3 sensor activation Q score
CC1=CC2=C(C=O)C(=O)[C@](C)(O)[C@@H](O)C2=CO1 | -0.85
Cc1cc(=O)[nH]c(N/N=C2/CCCCC2C)n1 (stereo not given) | 0.3
O=C(OCC1CCC=CO1)C1CCC=CO1 (stereo not given) | -0.85
Cc1cc(=S)[nH]c(=S)[nH]1 | 1.1
S=C(Nc1ccccc1)Nc1nccs1 | 0.6
S=c1[nH]ccn1-c1ccccc1Cl | 0.7
CN1CCc2ccccc2C1Cc1ccccc1NC(=O)c1sc2ccccc2c1Cl (stereo not given) | 0.3
Nc1[nH]nc2nc(-c3ccccc3)[nH]c(=O)c12 | 0.35
NS(=O)(=O)c1ccc(NC2(C(=O)O)CCCC2)cc1 | 1.3
COCC(=O)OC1CCn2c1nc1c2C(=O)C(C)=C(NC(C)=O)C1=O (stereo not given) | -0.35
CCCCSc1ncnc2[nH]ncc12 | 0.05
O=c1cc(-c2cccnc2)oc2c1ccc1ccccc12 | 1.25
Nc1ccc(Br)cc1Br | -0.55
Cc1c(N2CCCC2)cc2c(c1NC(=O)c1ccccc1Cl)C(C)(C)CC2(C)C | 0.7
CCOC(=O)C(C#N)C(=N)C1C(=O)OC2CCCCC21 (stereo not given) | -0.95
CCCCOc1ccc(Nc2cc(Cl)ccc2C(=O)O)cn1 | 1.4
O=C1C(Cl)=C(NCCc2ccccc2)C(=O)c2ccccc21 | 0.4
O=C(O)c1cc(Cl)n[nH]c1=O | -1.1
O=C(O)c1ccc(OCCOc2ccccc2)cc1 | -1.15
CSc1cccc(NC(=O)OC2CCCCCCCCCCC2)c1 | 0.6
Cc1nc(-c2ccccc2)c(Cc2ccccc2O)c(=O)[nH]1 | 1.4
CN(NC(=O)C(=O)NCc1ccco1)C(=O)NC1CCCCC1 | 0.8

Another view of part of the listing above:

| SMILES | T3 sensor activation Q score |
| --- | --- |
| COCC(=O)OC1CCn2c1nc1c2C(=O)C(C)=C(NC(C)=O)C1=O (stereo not given) | -0.35 |
| O=C1C(Cl)=C(NCCc2ccccc2)C(=O)c2ccccc21 | 0.4 |
| Cc1nc(-c2ccccc2)c(Cc2ccccc2O)c(=O)[nH]1 | 1.4 |
| CN(NC(=O)C(=O)NCc1ccco1)C(=O)NC1CCCCC1 | 0.8 |

Next entries follow:

SMILES | T3 sensor activation Q score
CO/N=C1/C=C(C)C(=O)C(C)=C1C | 0.25
NC(=O)C1=C[C@H]2[C@H]3C=C[C@@]2(O)C(=O)O[C@@H]3O1 | -0.05
Cc1nc(Br)c(Br)c(C)c1Br | 0
COc1ccc(Br)c2c1C(=O)CC2 | -1.4
CNc1nc(SC)n(C)c(=O)c1N=O | -1.05
CC(C)c1cc(C(C)C)n2nc(N)nc2n1 | 0.4
c1ccc(CSc2nnc3c4ccccc4c4ccccc4c3n2)cc1 | 0.4
OC1(Cc2ccccc2)CCNCC1 | -1.25
CN1CCC=C(C(=O)N2c3ccccc3Sc3ccc(Cl)cc32)C1 | 1.45
Cc1cccnc1NC(=O)c1csnn1 | 0.65
O=C(O)C(=O)Nc1ncn[nH]1 | -1.75
O=c1[nH]cnc(CN2CCCCC2)c1O | -1.2
CS/C(N)=N\S(=O)(=O)c1ccc(NC(C)=O)cc1 | 0.1
N#C/C(=C\c1cc(O)c(O)c(O)c1)C(N)=O | -0.4
CC(C)(C)NC(=S)NC(C)(C)C | -0.2
NC(=O)Nc1n[nH]c(-c2ccccc2)n1 | 0.7
CC(=O)OCCn1c2nc(=O)[nH]c(=O)c-2nc2cc(C)c(C)cc21 | 0.6
COc1cc(NCc2ccccc2O)c2ncccc2c1 | -1
Cn1cnc2ncnn2c1=S | -1.2
S=c1nc[nH]c2c1ncn2C1CCCO1 (stereo not given) | -0.4
O=C(Nc1ccc(C(=O)O)c(O)c1)c1ccccc1 | -1
Cc1nc2[nH]c(=O)n(O)c(=O)c2s1 | -1.3

SMILES | T3 sensor activation Q score
CN(C)/N=N/c1nc[nH]c1C(N)=O | 0.35
Cc1ccccc1OCC(O)CN1CCN(c2ccc(Cl)cc2)CC1 (stereo not given) | -0.4
N#Cc1cnn(-c2cccc(Cl)c2)c1-n1cccc1 | 0.75
COc1cc(CCC(=O)O)on1 | -0.6
O=C(/C=C/c1cccnc1)/C=C/c1cccnc1 | -0.9
Oc1c(N=Nc2nn[nH]n2)ccc2ccccc12 | 1.25
CCCC1OC(c2cc3c(cc2Cl)OCO3)OCC1CC (stereo not given) | 0.25
N#Cc1c(N)nc(N)nc1Nc1ccc(Br)cc1 | 1.55
COc1ccc2nc(-c3ccc(Cl)cc3)cc(C(=O)O)c2c1 | -0.75
CC1=NN(c2ccccc2)C(=O)C1C(=S)SC1CC(=O)NC1=O (stereo not given) | 0.4
CCOP(=O)(OCC)/C(C#N)=C/c1c[nH]c2ccccc12 | -0.85
Nc1ccc(NC(=O)c2ccc(C(=O)Nc3ccc(N)cc3)cc2)cc1 | 1.05
S=C(Sc1ccc(Cl)cc1)Sc1ccc(Cl)cc1 | -1.2
Cn1c(=O)c2[nH]c(CCCc3ccc([N+](=O)[O-])cc3)nc2n(C)c1=O | 0.35
Cn1c2c(sc1=O)CCC2 | 1.55
O=c1[nH]c2ccccc2n1C1=CCNCC1 | 1.3
NC(=O)c1cc(Br)cc(C2CCCCC2)c1O | 0.45
CCOC(=O)CCC1(C(=O)OC)C(=O)CCCCC/C=C/1C(=O)OC (stereo not given) | 1.3
Nc1ccc2c(c1)N=[N+]([O-])c1cc(N)ccc1C2 | -0.35
O=C1c2ccccc2NC(c2cc(Cl)cc(Cl)c2O)N1CCc1ccccn1 (stereo not given) | 0.55
CCCCSc1cc(=O)[nH]c(N)n1 | 0.2
O=C1c2ccccc2C(O)(c2ccccc2)N1c1ccncc1 (stereo not given) | 0.25

SMILES | T3 sensor activation Q score
CC(=O)Nc1cccc(NC(C)=O)n1 | -0.9
Cn1cnc([N+](=O)[O-])c1Sc1ncn[nH]1 | 1.8
CCSc1nc(O)cc(=O)[nH]1 | -1.2
CCCS(=O)(=O)Nc1ccc(F)c(C(=O)c2c[nH]c3ncc(-c4ccc(Cl)cc4)cc23)c1F | -1.75
Cc1ccc(NC(=O)N2CCCCC2)cc1NC(=O)N1CCCCC1 | 1.4
Oc1ccc(Nc2ccnc3cc(Cl)ccc23)cc1 | 1.1
O=C(Nc1ccc(Oc2ccc(NC(=O)Nc3ccc([N+](=O)[O-])cc3)cc2)cc1)Nc1ccc([N+](=O)[O-])cc1 | -1.45
O=C(O)/C(=C/c1ccccc1)c1ccccc1 | 0.45
CCOC(=O)N1C/C(=C\c2ccccc2)C(=O)/C(=C/c2ccccc2)C1 | -0.15
COc1cnc(SC)nc1Nc1ccc(C#N)cc1 | 1.5
OC(c1cc(C(F)(F)F)nc2c(Cl)cc(Cl)cc12)C1CCCCN1 (stereo not given) | -1.2
C[C@@H](CN1CC(=O)NC(=O)C1)N1CC(=O)NC(=O)C1 | -0.6
Cc1nc(/N=C(/N)N(C)C)[nH]c(=O)c1C | 1.05
Fc1ccc(-c2cc(-c3cccs3)cc(-c3ccccc3)n2)cc1 | 0.45
Oc1cc(CNC2CCCCC2)c(O)cc1CNC1CCCCC1 | 0.65
CCOc1nc(OCC)c2cnn(C)c2n1 | 0.55
NC(=O)c1ccc(N=Nc2c(O)c3ccccc3[nH]c2=O)cc1 | 0.5
NC(N)=NCCCS(=O)(=O)Nc1ccc(Nc2c3ccccc3nc3cc([N+](=O)[O-])ccc23)cc1 | -0.75
O=c1c2ccccc2ncn1-c1ccc(Cl)cc1 | 0.25
